Results: US10092574B2, “Inhibitors of polynucleotide repeat-associated RNA foci and uses thereof” (VALORISATION-RECHERCHE, LIMITED PARTNERSHIP, priority 2013, dated 2018)
Some entries share one result that the patent states for a list of compounds.

tested on: MBNL2, MBNL1, Sercal and TNNT2 pre-mRNAs; test: Splicing assays on the panel of MBNL2, MBNL1, Sercal and TNNT2 pre-mRNAs in DM1 myoblasts; format: cell-based, human; details: 20 μM, 7 days (FIG. 11)
Protocol: Human myoblasts were obtained from the Myosix institute associated with the Association Frangaise contre les Myopathies (AFM). Five primary myoblast lines were obtained as controls, and one line from a DM1 patient with a 3.8 Kb CTG triplet amplification corresponding to approximately 1250 CTG repeats. The human myoblasts are cultivated in HAM-F10 media (SIGMA N6635) with 15% FBS, 1% chick embryo extract, and 390 ng/ml of dexamethasone. One day before adding compounds, 2×10^5 cells were plated in 100 mm plates (for CUGBP1 western blot or RT-PCR alternative splicing assay) or 2×10^4 cells/well are seeded in 12-well plates containing 12 mm round glass coverslips (for FISH to detect RNA foci). One day after plating, media is replaced with fresh media containing the compounds at the desired concentration in this manner: the media is put in a screw-cap tube and heated at 37° C. The 20 mM compound stock in 100% DMSO is pipetted directly into the media and the tube is mixed well by inversion and gentle vortexing, and immediately overlayed on the cells. Pure DMSO is used for the control cells. Final concentrations on myoblasts are never higher than 0.5%. This procedure is repeated twice during the seven days of treatment, the media is thus replaced with fresh media containing compound every 2-3 days. […]
For Western blots, CUGBP1 was detected with the 3B1-3D11 monoclonal antibody (mAb) (SIGMA C5112) and GAPDH was detected with the 6C5 mAb (Millipore MAB374). The enhanced chemiluminescence signal (ECL) was acquired and quantified with the ChemiDoc™ MP imaging system (Bio-Rad). […] The alternative splicing of the hnRNPA2/B1 transcript was detected with the primers 5′-[…]-3′ (SEQ ID NO:7) and 5′-[…]-3′ (SEQ ID NO:8). PCR was performed with Taq using standard conditions but the number of amplification cycles was optimized to be in the quantitative range for each gene. The products of PCR amplification were resolved on 3.5% agarose gels containing Gelred™ (Biotium) and images were acquired and quantified with the ChemiDoc™ MP imaging system (Bio-Rad). […]

Row | Structure (SMILES) | number of mis-spliced pre-mRNAs corrected (active = at least 3 control pre-mRNAs above 5%)
1 | O=C(c1cnn(-c2ccccc2)c1C(F)(F)F)N(Cc1ccccc1)Cc1cccs1 [Compound 102, N-Benzyl-1-phenyl-N-(thiophen-2-ylmethyl)-5-(trifluoromethyl)-1H-pyrazole-4-carboxamide] | at least 3
2 | CCCN(CCC)S(=O)(=O)c1ccc(NC(=O)c2cnn(-c3ccccc3)c2C)cc1 [Compound 196, N-(4-(N,N-Dipropylsulfamoyl)phenyl)-5-methyl-1-phenyl-1H-pyrazole-4-carboxamide] | at least 3
3 | Cc1c(C(=O)N(Cc2ccccc2)Cc2ccccc2)cnn1-c1ccccc1 [Compound 214, N,N-Dibenzyl-5-methyl-1-phenyl-1H-pyrazole-4-carboxamide] | at least 3
